Data: PubChem BioAssay AID1347131 (National Center for Advancing Translational Sciences (NCATS), 2019)
The campaign covered roughly 410,000 compounds. About 2,000 (0.49%) were called active. The inconclusive results got no clear call from the source; some entries with a clear call stand among them for comparison. Calls follow the shape of the full dose curve; tested in HEK293 reporter line. A potency beside an inconclusive call is a rough fit, not a confirmed value.

Experiment: qHTS Assay for Foot and Mouth Disease Virus Antivirals: Primary Screen against the MLPCN compound library; also: nearly all actives have a fitted effect of over 55% in size
Details: FMDV antiviral cell-based qHTS; activity, negative = inhibition: at 57.9 µM (top of the series)
Potency is read from the fitted curve at half-maximal effect.

| Compound | Potency | activity, negative = inhibition |
| --- | --- | --- |
| CC1=NN(C(C#N)c2ccccc2)C(c2ccccc2)C1 (stereo not given) | inconclusive: 11.2 µM [inhibitor, partial curve] | – |
| CCC(Sc1nc2nccnc2c(=O)n1Cc1ccc(OC)cc1)C(=O)NC1CCCCC1 (stereo not given) | inconclusive: 7.08 µM [inhibitor, partial curve, poor fit] | – |
| Cn1c(SCc2cccc([N+](=O)[O-])c2)nc2ccccc2c1=O | inconclusive: 20 µM [inhibitor, partial curve, poor fit] | – |
| COc1ccc(/C(C)=C2\SC(=S)N(CCC(=O)O)C2=O)cc1 | inconclusive: 17.8 µM [inhibitor, partial curve, poor fit] | – |
| O=[N+]([O-])c1cc(Br)c(O)c(/C=N/Nc2nc3ccccc3s2)c1 | inconclusive: 11.2 µM [inhibitor, partial curve, poor fit] | – |
| Cc1ccc(-c2nnc(N3CCC(C)CC3)c3ccccc23)cc1C | inconclusive: 20 µM [inhibitor, partial curve, poor fit] | – |
| CCOC(=O)c1c(-n2c(C)cc(/C=C3\C(=O)NC(=O)N(C)C3=O)c2C)sc2c1CCCC2 | inconclusive: 7.94 µM [inhibitor, partial curve] | – |
| CC(C)(C)C1CCc2c(sc(NC(=O)c3cc(C4CC4)on3)c2C#N)C1 (stereo not given) | inconclusive: 10 µM [inhibitor, partial curve, poor fit] | – |
| O=C1C2C(c3ccccc3)C=CC(c3ccccc3)C2C(=O)N1CCCO (stereo not given) | inconclusive: 31.6 µM [inhibitor, partial curve, poor fit] | – |
| CC(C)NC(=O)C1CCN(c2nc3ccccc3nc2C(F)(F)F)CC1 | inconclusive: 12.6 µM [inhibitor, partial curve] | – |
| CC(C)OCCCNc1ncnc2c1[nH]c1ccccc12 | inconclusive: 17.8 µM [inhibitor, partial curve, poor fit] | – |
| CC[n+]1c(-c2ccc(C)cc2)csc1Nc1c(C)n(C)n(-c2ccccc2)c1=O | inconclusive: 31.6 µM [inhibitor, single point] | – |
| CCC1CCCCN1CCCNC(=O)C1CCN(Cc2nc(-c3ccc(Cl)cc3)oc2C)CC1 (stereo not given) | inconclusive: 2.82 µM [inhibitor, full curve] | – |
| O=C(c1ccc(OC2CCN(CCc3ccccc3)CC2)cc1)N1CCCC(CO)C1 (stereo not given) | inconclusive: 3.16 µM [inhibitor, full curve] | – |
| COCCCn1cnc2oc3nc4ccccc4nc3c2c1=O | inconclusive: 17.8 µM [inhibitor, single point] | – |
| COC(=O)CCCn1c(C)cc(C(=O)CCl)c1C | inconclusive: 28.2 µM [inhibitor, partial curve, poor fit] | – |
| O=C(c1ccc(COc2ccc(Br)cc2)o1)N1N=C(C(F)F)CC1(O)C(F)F (stereo not given) | inconclusive: 25.1 µM [inhibitor, partial curve, poor fit] | – |
| COc1ccccc1NC(=O)Nc1nc(CC(=O)N2CCN(c3ccccc3OC)CC2)cs1 | inconclusive: 28.2 µM [inhibitor, partial curve, poor fit] | – |

| Compound | Potency | activity, negative = inhibition |
| --- | --- | --- |
| Cc1cccc(N2CCN(C(=O)c3cc4c(=O)[nH]c5ccccc5c4n3C)CC2)c1C | inconclusive: 31.6 µM [inhibitor, single point] | – |
| Cc1cnc(NC(=O)C2(C)CCN2C(=O)C(C)C)s1 (stereo not given) | inconclusive: 12.6 µM [inhibitor, partial curve] | – |
| COc1ccc2nc(C)cc(Nc3ccccc3OC)c2c1 | inconclusive: 1.26 µM [inhibitor, partial curve, poor fit] | – |
| Cc1cccn2c(=O)c(C=C(C#N)C#N)c(N3CCN(c4cccc(Cl)c4)CC3)nc12 | inconclusive: 7.94 µM [inhibitor, partial curve] | – |
| COc1ccc(C(=O)NCCn2cc(SCc3ccc(C(F)(F)F)cc3)c3ccccc32)cc1OC | inconclusive: 22.4 µM [inhibitor, partial curve, poor fit] | – |
| COc1ccc(OC(=O)N2C/C(=C/c3ccccc3)C(=O)/C(=C\c3ccccc3)C2)cc1 | inconclusive: 31.6 µM [inhibitor, single point] | – |
| COc1cccc(CNC(=O)C2CCCN(S(=O)(=O)N(C)c3ccc(F)cc3)C2)c1OC (stereo not given) | inconclusive: 22.4 µM [inhibitor, partial curve, poor fit] | – |
| CCCCN1C=CC(=C2C(=O)c3ccccc3C2=O)C=C1 | inconclusive: 10 µM [inhibitor, partial curve, poor fit] | – |
| O=C(NCCc1ccccc1)C(c1cccs1)N(C(=O)CCl)c1ccc(Cl)cc1 (stereo not given) | inconclusive: 35.5 µM [inhibitor, partial curve, poor fit] | – |
| Cc1ccccc1-n1c(/C=C/c2ccc(N(C)C)cc2)nc2ccccc2c1=O | inconclusive: 2.82 µM [inhibitor, partial curve, poor fit] | – |
| C=C(CC[C@@H](O)C(C)(C)O)[C@H]1CC[C@]2(C)[C@@H]1CCC1[C@@]3(C)CCC(=O)C(C)(C)C3CC[C@]12C (stereo not given in full) | inconclusive: 14.1 µM [inhibitor, partial curve, poor fit] | – |
| Cc1cc(C)c2sc(N(CCN(C)C)C(=O)c3c(F)cccc3F)nc2c1 | – | inactive: -30.3% |
| COc1ccccc1Nc1sc(C(=O)c2ccc(F)cc2)c(N)c1S(=O)(=O)c1ccc(C)cc1 | inconclusive: 1.41 µM [inhibitor, partial curve, poor fit] | – |
| C=CC[C@H](CC(=O)N(CCO)Cc1ccccc1)C(=O)NC[C@H](OC(=O)[C@@H](CC=C)Cc1ccc(F)cc1)c1ccccc1 | inconclusive: 35.5 µM [inhibitor, partial curve, poor fit] | – |
| CCOC(=O)c1cc2c(=Cc3ccc(N(C)C)cc3)c3ccccc3n2[n+]1C | inconclusive: 17.8 µM [inhibitor, partial curve, poor fit] | – |
| COc1ccc2c(c1)C(=O)N(c1ccc(C)cc1C)C(=O)C2(C)C | inconclusive: 11.2 µM [inhibitor, partial curve] | – |
| CCC(=O)OCOc1ccc(/C=C2/CCC(CN(C)C)C2=O)cc1 (stereo not given) | inconclusive: 31.6 µM [inhibitor, single point] | – |

Some values from the list.
C=C(CC[C@@H](O)C(C)(C)O)[C@H]1CC[C@]2(C)[C@@H]1CCC1[C@@]3(C)CCC(=O)C(C)(C)C3CC[C@]12C (stereo not given in full) | Potency: inconclusive: 14.1 µM [inhibitor, partial curve, poor fit]
COc1ccc2c(c1)C(=O)N(c1ccc(C)cc1C)C(=O)C2(C)C | Potency: inconclusive: 11.2 µM [inhibitor, partial curve]
